Test results from patent publication US9259426B2, “4,6-di- and 2,4,6-trisubstituted quinazoline derivatives useful for treating viral infections” (Gilead Sciences, Inc., priority 2006, dated 2016).
At least one compound was matched to its structure with a doubt left.

Tested on: HCV replicon in human hepatoma Huh-7 cell line
Assay: Anti-HCV replicon assay (EC50, luciferase readout)
Type: cell-based
Details: Huh-7 HCV replicon cells, 3 days incubation, luciferase luminescence; read-out: EC50 (50% effective concentration)
Method: The anti HCV activity of the quinazoline derivatives of this invention was tested in a human hepatoma Huh-7 cell line harbouring a HCV replicon. The assay comprised the following steps:
Step 1: compound preparation and serial dilution
• 1. for water soluble quinazoline derivatives, a volume of 500 μL of solution in cell media (DMEM, 10% FBS, P/S, L-Glutamine) was prepared with a concentration being twice the concentration of the starting final serial dilution concentration. A volume of 150 μL of the solution was added to the pre-specified wells in column 1 of a 96-well cell culture plate (PerkinElmer, white plate, cat. #6005181, for EC50 assay; black plate, cat. #6005182 for CC50 assay). The rest of the plate, columns 2-12, was filled with 100 μL of cell media. The plate was then placed on a Precision 2000 Workstation to start the serial dilution. Compounds were diluted three times each step from column 1 to column 10. […] The plate was incubated for 30 minutes at room temperature before the luminescence signal was measured with a TopCount plate-reader. • b) for the CC50 assay, a volume of 100 μL of pre-mixed CeliTiter-Glo (Promega, cat.# G7572) solution is added directly to the cell culture in each well of the plate and the luminescence signal is measured with a TopCount plate-reader after 10 minutes of incubation at room temperature. […]

COCCNc1nc(N)nc2ccc(-c3ccc(C(=O)NC4CC4)cc3)cc12 [Example 56, 4-[2-Amino-4-(2-methoxy-ethylamino)-quinazolin-6-yl]-N cyclopropyl-benzamide]
EC50: 1 to 10 µM
